{"source": "patent US20250154546A1", "about": "“USE OF 3'-OXYMETHYLENE ALKYL DISULFIDE PROTECTED NUCLEOTIDES FOR ENZYMATIC DNA AND RNA SYNTHESIS” (Miltenyi Biotec B.V. & Co. KG, priority 2022, published 2025)", "test": "Cleave kinetics of 3′-O-capped nucleotide in cleave mix, monitored by UPLC", "format": "physicochemical", "settings": "cleave mix 20 mM DMPS in buffer at pH 9.5, 10 mM Mg2+", "procedure": "A 3′-O-capped nucleotide was treated with a cleave mix DMPS/THPP and the concentration of the 3′-capped nucleotide was monitored by UPLC with a UV detector at a fixed time interval.\nIn [A]=−kt+In[A]0 and t1/2=In2/k with [A]: reactant concentration; k: reaction rate coefficient\nNucleotide: MeSSdATP, 4.7 mM in 1× TE buffer;\n12.8 μL of nucleotide was added to 287 μL of cleave mix in a 1.5 mL of UPLC sample vial. The resulting mixture was analyzed by UPLC right away and every 10 min afterwards automatically for up to 120 min. The area of the starting nucleotide peak was measured at each time point and the value was used directly for the calculation. From the rate of peak area reduction or disappearance of the intermediate the rate constant and the half-life of the intermediate calculated as discussed earlier.", "note": "At least one structure is not confirmed: it was looked up by name or label, or the drawing left a doubt."}
{"smiles": "CSSCO[C@H]1C[C@H](n2cnc3c(N)ncnc32)O[C@@H]1COP(=O)(O)OP(=O)(O)OP(=O)(O)O", "note": "[MeSSdATP, 3′-O—(MeSSCH2)-dATP]", "values": [{"measurement": "half-life of the intermediate (cleavage reaction)", "value": 18.3, "unit": "s"}]}
